# Measurements as given in patent US7049444B2, “3-azabicyclo[3.1.0]hexane derivatives useful in therapy” (Pfizer Inc., priority 1998, dated 2006).
# By UniProt entry, the sequences of proteins in these tests, tags left out. Residues count along the entry.
# UniProt A0A0F6TMT6, 1-401: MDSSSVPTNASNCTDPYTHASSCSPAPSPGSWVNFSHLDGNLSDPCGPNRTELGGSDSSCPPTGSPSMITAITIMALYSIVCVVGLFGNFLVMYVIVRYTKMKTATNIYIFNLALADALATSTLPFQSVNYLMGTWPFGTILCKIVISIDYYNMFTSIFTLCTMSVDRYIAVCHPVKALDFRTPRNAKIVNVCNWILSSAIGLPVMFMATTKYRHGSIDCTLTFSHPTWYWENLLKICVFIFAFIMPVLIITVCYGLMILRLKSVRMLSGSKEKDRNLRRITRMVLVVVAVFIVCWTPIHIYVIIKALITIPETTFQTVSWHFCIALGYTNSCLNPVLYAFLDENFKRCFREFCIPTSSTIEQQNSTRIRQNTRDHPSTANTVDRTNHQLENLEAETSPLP
# Some results were stated once for a whole list of compounds, not compound by compound.
# Biological target: T1, mu opioid receptor (Canis lupus familiaris, UniProt A0A0F6TMT6)
# T1 construct: Laboratory bred beagles were used as a source of dog brain tissue; from tissue; host or cells: beagle brain without cerebellum, washed membrane homogenate
# Assay: mu opioid receptor binding assay in dog brain membranes (3H-DAMGO displacement)
# Conditions: room temperature 90 minutes, read-out: Ki values for the μ receptor
smiles,measurement,value
"CS(=O)(=O)Nc1cccc(C2C3CN(CCCc4ccccc4)CC32)c1 (stereo not shown) [Example 14, N-[3-(3-{3-Phenylpropyl}-3-azabicyclo[3.1.0]hex-6-yl)phenyl]-methanesulfonamide]",Ki,≤ 4 µM
